Measurements taken from patent US20240309090A1, “MODULATION OF ANDROGEN SIGNALING TO INNATE IMMUNE KILLING OF PROSTATE CANCER” (Brown University, priority 2023, published 2024).
At least one compound was matched to its structure with a doubt left.

Assays:
[1] = test system: PC3 cell line; test: Flow cytometry of HLA-E surface expression on AR-negative PC3; format: cell-based; details: PC3, DHT 30 nM, vorinostat 0.3 μM, panobinostat 3 nM, 48 h
Text: To evaluate the modulation of the androgen receptor and tumor HLA-E expression, we astably transduced AR negative cell lines PC3 and DU145 with an Androgen Response Element (ARE) GFP reporter (FIG. 16H). […] Using AR+ constructed cell lines, PC3 and DU145, we sought to determine the dependence of HLA-E expression and possible modulation by AR. […] Although potential therapies targeting immune enhancement are being explored, the expression of exhaustion markers such as PD-1, NKG2A, and potential engaging ligands that diminish their cytotoxic function limits their application. Exploring these factors with new combination approaches, such as ARi and anti-NKG2A, and understanding the modulation of its targets upon treatment is key in overcoming immune-resistant scenarios, especially in prostate cancer.
Experiments were conducted with noncytotoxic doses of vorinostat (0.3 μM) and panobinostat (3 nM).
PCa cells were plated at a density of 3×10^5 cells per well of a 6-well plate and adhered overnight. […] After treatment, cells were trypsinized, stained, and incubated (Cell Staining Buffer SouthernBiotech #0225-01S) with the corresponding antibody for 45-60 min at 4° C. Viability dye was added with each run. NK-92 cells and patient-derived cells were stained similarly. […]

[2] = test system: LNCaP cells; test: Flow cytometry of HLA-E / PD-L1 surface expression on LNCaP; format: cell-based; details: DHT 30 nM, vorinostat 0.3 μM, panobinostat 3 nM, 48 h
Protocol: The effect of ARi on the NKG2A ligand, HLA-E, was investigated by flow cytometry on PCa cells treated with enza and daro.
PCa cells were plated at a density of 3×10^5 cells per well of a 6-well plate and adhered overnight. […] After treatment, cells were trypsinized, stained, and incubated (Cell Staining Buffer SouthernBiotech #0225-01S) with the corresponding antibody for 45-60 min at 4° C. Viability dye was added with each run. NK-92 cells and patient-derived cells were stained similarly. Markers used for experiments included: Thermofisher HLA-E Monoclonal Antibody (3D12HLA-E), Alexa Fluor™ 488, eBioscience™, CD274 (PD-L1, B7-H1) Monoclonal Antibody (MIH1), eFluor™ 450, eBioscience™, Cell Signaling PD-1 (D4W2J) XPR Rabbit mAb, SYTOX™ Orange Dead Cell Stain, for flow cytometry, BioLegend APC anti-human CD159a (NKG2A) Antibody #375108, BioLegend APC anti-human CD69 Antibody #310909, BioLegend Alexa Fluor® 647 anti-human CD137 (4-1BB) [4B4-1] #309823. […]
The effect of androgen pathway inhibitors in the expression of HLA-E, a negative and key negative modulator of NK cell function, was also performed using Flow Cytometry. PD-L1 expression levels were also measured. […]

Structure (SMILES): Cc1[nH]c2ccccc2c1CCNCc1ccc(/C=C/C(=O)NO)cc1 [panobinostat]
- surface expression of HLA-E [1]: did not change
- expression of HLA-E upon DHT treatment with HDACi [2]: did not change significantly
